# Tested on: hair keratin (bleached hair tresses)
# Experiment: Hair protection against UV, high-pressure differential scanning calorimetry (DSC)
# Details: 15% (w/w) solution 0.2 ml/g of hair, total 6 h UV exposure in Q-sun UV chamber, 6 replicates
# Description: Hair protection against UV was evaluated using a standard set of high-pressure differential scanning calorimetry (DSC). The experiments were conducted on samples of hair with and without UV exposure and with and without application of compounds according to the invention. This technique was used to detect any deep structural changes in the hair keratin that occurs as a result of damage, such as that caused by UV which may affect the keratin structure, such as changes to the cysteine bond arrangement or the content of strongly bound water (Milczarek, P., M. Zielinski, and M. L. Garcia. “The mechanism and stability of thermal transitions in hair keratin.” Colloid and Polymer Science 270.11 (1992): 1106-1115; Wortmann, Franz-J., Christian Springob, and Gerhard Sendelbach. “Investigations of cosmetically treated human hair by differential scanning calorimetry in water.” Journal of cosmetic science 53.4 (2002): 219-228).
# • 1 Bleached Hair tresses (3 g, 8 inches long, 1 inch wide naturally white hair tresses, 9% bleached) were soaked for 48 h while stirring in 4 liters of de-ionized water. Water was changed twice a day. Hair tresses were pretested using DSC to ensure that damage level across the tresses is similar. […]
smiles,measurement,value
"COC(=O)C(CC(=O)c1ccccc1N)NC(=O)C[N+](C)(C)C (stereo not shown) [Compound 43, 2-((4-(2-aminophenyl)-1-methoxy-1,4-dioxobutan-2-yl)amino)-N,N,N-trimethyl-2-oxoethan-1-aminium]",Mean Denaturation Temperature (Td),145.8 °C

# Source: patent US20260098007A1, “Compounds and Their Use in Filtering Ultraviolet and/or High-Energy Visible Light” (Soliome Inc., priority 2022, published 2026)
